Experimental data: PubChem BioAssay AID504764 (Drosophila RNAi Screening Center, 2011)

Purpose: 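Genome-wide screen for regulators of Notch-driven gene expression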 (primary screen)
Cell system: Drosophila Kc167 cells
Reagents: long dsRNA against Drosophila genes
Time to read-out: about 5 days (4 days dsRNA, then 24 h after transfection)
Treatment: transfection of constitutively active membrane-tethered Notch lacking the extracellular domain, read 24 h later
Detection: 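Light from a Notch-responsive E(spl)m3 luciferase reporter under active Notch, with control-promoter and no-Notch reporter wells to normalise; raw counts from paired wells a and b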
Direction: induced reporter light, run 1, well a and induced reporter light, run 1, well b: higher = more light from the Notch target reporter with active Notch; control promoter light, run 1, well a and control promoter light, run 1, well b: higher = more light from the viral control promoter (cell number, transfection, viability); uninduced reporter light, run 1, well a: higher = more light from the Notch target reporter without active Notch
Active means: 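Wells with low control signal or poorly matching duplicates excluded; duplicates averaged; per source plate, z beyond ±2 for induced/control log2 ratio or beyond ±1.8 for induced/uninduced marks a hit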
Meaning of the calls: active = modifier hit (raised or lowered Notch signal); inactive = not a hit
In all, the deposit lists about 22,000 reagents; this is an unselected part of those with a known target gene and a result. Over the whole deposit, 403 (1.9%) got an active call. 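Unnormalised raw counts per well; ratio z-scores behind the hit calls and whether each hit raises or lowers signal are not deposited.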 Unmarked entries are inactive. Not stated in the record: the amount of reagent.

ari-2 (ariadne 2) [DRSC04672]
- induced reporter light, run 1, well a: 35790
- induced reporter light, run 1, well b: 33955
- control promoter light, run 1, well a: 46530
- control promoter light, run 1, well b: 55450
- uninduced reporter light, run 1, well a: 1982

Ir60a (Ionotropic receptor 60a) [DRSC04212]
- induced reporter light, run 1, well a: 1.65e5
- induced reporter light, run 1, well b: 1.39e5
- control promoter light, run 1, well a: 1.43e5
- control promoter light, run 1, well b: 1.54e5
- uninduced reporter light, run 1, well a: 11200

pgc (polar granule component) [DRSC04099]
- induced reporter light, run 1, well a: 20950
- induced reporter light, run 1, well b: 31715
- control promoter light, run 1, well a: 41775
- control promoter light, run 1, well b: 39385
- uninduced reporter light, run 1, well a: 3120

CG14111 [DRSC10114]
- induced reporter light, run 1, well a: 1.64e5
- induced reporter light, run 1, well b: 1.29e5
- control promoter light, run 1, well a: 1.94e5
- control promoter light, run 1, well b: 1.42e5
- uninduced reporter light, run 1, well a: 9010

su(f) (suppressor of forked) [DRSC20907]
- induced reporter light, run 1, well a: 50915
- induced reporter light, run 1, well b: 55040
- control promoter light, run 1, well a: 51860
- control promoter light, run 1, well b: 52450
- uninduced reporter light, run 1, well a: 5970

CG8738 [DRSC07256]
- induced reporter light, run 1, well a: 1.67e5
- induced reporter light, run 1, well b: 1.77e5
- control promoter light, run 1, well a: 1.84e5
- control promoter light, run 1, well b: 1.91e5
- uninduced reporter light, run 1, well a: 17125

Agps (Alkylglycerone phosphate synthase) [DRSC05984]
- induced reporter light, run 1, well a: 71440
- induced reporter light, run 1, well b: 77935
- control promoter light, run 1, well a: 1.23e5
- control promoter light, run 1, well b: 1.04e5
- uninduced reporter light, run 1, well a: 5935

CG42710 [DRSC01034]
- induced reporter light, run 1, well a: 1.21e5
- induced reporter light, run 1, well b: 1.13e5
- control promoter light, run 1, well a: 1.32e5
- control promoter light, run 1, well b: 1.21e5
- uninduced reporter light, run 1, well a: 9742

S-Lap1 (Sperm-Leucylaminopeptidase 1) [DRSC10627]
- induced reporter light, run 1, well a: 99155
- induced reporter light, run 1, well b: 98280
- control promoter light, run 1, well a: 67930
- control promoter light, run 1, well b: 28865
- uninduced reporter light, run 1, well a: 9210

Hey (Hairy/E(spl)-related with YRPW motif) [DRSC07440]
- induced reporter light, run 1, well a: 9235
- induced reporter light, run 1, well b: 8540
- control promoter light, run 1, well a: 11445
- control promoter light, run 1, well b: 10130
- uninduced reporter light, run 1, well a: 2982

CG6985 [DRSC16164]
- induced reporter light, run 1, well a: 2.07e5
- induced reporter light, run 1, well b: 1.75e5
- control promoter light, run 1, well a: 1.98e5
- control promoter light, run 1, well b: 2.32e5
- uninduced reporter light, run 1, well a: 14850

twi (twist) [DRSC04720]
- induced reporter light, run 1, well a: 60455
- induced reporter light, run 1, well b: 63335
- control promoter light, run 1, well a: 47450
- control promoter light, run 1, well b: 52845
- uninduced reporter light, run 1, well a: 7825

RpL19 (Ribosomal protein L19) [DRSC04649]
- induced reporter light, run 1, well a: 8935
- induced reporter light, run 1, well b: 8835
- control promoter light, run 1, well a: 5475
- control promoter light, run 1, well b: 6235
- uninduced reporter light, run 1, well a: 410

crp (cropped) [DRSC03515]
- induced reporter light, run 1, well a: 87535
- induced reporter light, run 1, well b: 95775
- control promoter light, run 1, well a: 98865
- control promoter light, run 1, well b: 1.06e5
- uninduced reporter light, run 1, well a: 7780

Tom20 (Translocase of outer membrane 20) [DRSC10899]
- induced reporter light, run 1, well a: 1.14e5
- induced reporter light, run 1, well b: 1.58e5
- control promoter light, run 1, well a: 90190
- control promoter light, run 1, well b: 95440
- uninduced reporter light, run 1, well a: 10645

ITP (Ion transport peptide) [DRSC04222]
- induced reporter light, run 1, well a: 1.52e5
- induced reporter light, run 1, well b: 1.18e5
- control promoter light, run 1, well a: 1.44e5
- control promoter light, run 1, well b: 1.50e5
- uninduced reporter light, run 1, well a: 9450

CG11899 [DRSC16656]
- induced reporter light, run 1, well a: 1.24e5
- induced reporter light, run 1, well b: 1.12e5
- control promoter light, run 1, well a: 1.59e5
- control promoter light, run 1, well b: 1.56e5
- uninduced reporter light, run 1, well a: 9535

Sems (Seminase) [DRSC11626]
- induced reporter light, run 1, well a: 35480
- induced reporter light, run 1, well b: 27145
- control promoter light, run 1, well a: 38890
- control promoter light, run 1, well b: 34955
- uninduced reporter light, run 1, well a: 2380

Ordered by “induced reporter light, run 1, well a” (descending): some entries from above
S-Lap1 (Sperm-Leucylaminopeptidase 1) [DRSC10627]
- induced reporter light, run 1, well a: 99155
- induced reporter light, run 1, well b: 98280
- control promoter light, run 1, well a: 67930
- control promoter light, run 1, well b: 28865
- uninduced reporter light, run 1, well a: 9210

Hey (Hairy/E(spl)-related with YRPW motif) [DRSC07440]
- induced reporter light, run 1, well a: 9235
- induced reporter light, run 1, well b: 8540
- control promoter light, run 1, well a: 11445
- control promoter light, run 1, well b: 10130
- uninduced reporter light, run 1, well a: 2982
